Screen size: about 53,000 sequences; about 3,700 (7%) were called active.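 The calls were made as follows: active = gene knockdowns whose robust z-score for IL-1 alpha signal is at least 2 or at most -2, so actives lie on both sides; inactive = the rest.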 Some of the results follow.

A short description of the assay: Components of the Cytosolic LPS Sensing Pathway: Gene Identification via Genome-wide siRNA Screen.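 Also: robust z of the log signal after scaling to non-targeting control siRNA wells of the plate.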 The settings on record: RAW264.7 macrophages, IL-1a HTRF, actives lie on both sides, screened at 100 nM (by protocol), cells primed 5 h with Pam3CSK4 first. Put shortly: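 Knockdown: 100 nM siRNA, 48h, RAW264.7. Stimulation: Pam3CSK4 5 h, then LipidA via TransIT-TKO 24 h. Output: supernatant IL-1a HTRF, negative-control-normalized, log robust z-score; viability by CellTiter-Glo.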
On the technique in general: In TR-FRET formats the signal depends on donor and acceptor labels being close together.
Regarding GCCGGUGAAGACCAUUCACTT against Paox, the z-score was inactive: 0.571.

Regarding GGAUCUCGCUGGCAAUAAUTT against Gpr45, the z-score was inactive: -0.222.

On to GGGACAUACAUAUCCUCCUTT against Cwc25, for which the z-score is inactive: -1.47.

Take GGAGGUCUGUCUGGAUCCATT against Cxcl5: the z-score was inactive: -0.698.

On to GGUCAAAGGACAAAGAUAATT against Atg7, for which the z-score was inactive: -1.35.

As to GCCUGUCACCUGUAGCAACTT against Krtap12-1, the z-score is inactive: -0.434.

With GGGUUCAGCAUACCCUUCATT against Vmn1r227, the z-score was inactive: 0.522.

In the case of GGCUGUUACAUUCUAUAUUTT against Kif5c, the z-score is inactive: -0.13.

In the case of GCAUCAUUCGUUAUGCAAUTT against Itgax, the z-score was inactive: 0.281.

Regarding CGUGAUAGAUGGAAGCUACTT against Zcchc13, the z-score was inactive: -0.155.

As for CCAUACAGAUCGCACCCUGTT against Txndc15, the z-score is active: -2.15.

For ACUGUUAACCAAGGAGAAATT against Ghrhr, the z-score is inactive: -0.533.

As to GGAAAUCUCUGGGAUUGUATT against Rpa3, the z-score is inactive: -0.482.

Turning to GCAAUUCAGCUUAUAAGCATT against Mterf2, the z-score was active: -2.79.

For the sequence GGACAAGAGUGAGAAGGAATT against Yaf2, the z-score is inactive: -1.5.

GCGAUAUCUCAACUUCCCGTT against Fchsd1: the z-score was inactive: 0.541.

As for GGUGUAUAUCAACAUCAGUTT against Inpp5k, the z-score was inactive: 0.454.

On to GAAUGUGUUAUUCCCAAAATT against Olfr784, for which the z-score was inactive: -0.119.

In the case of GCGCAACUGUGUCCUGUUATT against Olfr133, the z-score is inactive: -0.931.

Consider GGAGCCUCACUGAAUGUCUTT against Ankrd10, for which the z-score was inactive: -0.736.

For the sequence GGAAAAAAAUGCUGUAUACTT against Insm1, the z-score was inactive: -0.599.

For GGUAUUCAAUUGAUCGUCATT against Cdh11, the z-score was inactive: 1.35.

As for GGGCGGAGAAUGAAGCUUUTT against Gpatch3, the z-score is inactive: 1.

Consider GGUAUUCUUUGAAGAAAACTT against Tbc1d14, for which the z-score was inactive: 1.17.

Turning to GGUUAUGAUGGGACUUCUCTT against Tmem37, the z-score was inactive: -1.34.

For the sequence GGAUUACCACAGAGCUUCATT against Rhox3a, the z-score was inactive: -1.38.

For GGGUUGAUCCCUUUGAUUCTT against Pld4, the z-score was inactive: -0.268.

For CGGCACUCAACUCAGAUACTT against Commd1, the z-score is inactive: 0.423.

As for CCGAUUCUGAGAGUAACAATT against Alx4, the z-score is inactive: 0.00497.

As for GGAAAAAUGGUCUGUAAAATT against Adck2, the z-score is inactive: 0.508.

Turning to “CCCAUGCACAUCAUGAGAATT against 4931429L15Rik”, the z-score is inactive: -1.16.

As for GCAAUGCGACGUGCUCUAUTT against Trim67, the z-score was inactive: 0.136.

On to CCCACUACGUCAUACCACUTT against Olfr605, for which the z-score was inactive: -0.888.

Regarding GGGUUGAUUGACAGGUAAATT against H2-Q10, the z-score is inactive: 0.92.

Consider CCAUGUGGUGAGGACUUCATT against Pkp4, for which the z-score was inactive: 1.07.

On to GGGUAUUCAUGAUGUCUUUTT against Kctd6, for which the z-score is inactive: 1.39.

For the sequence UUGUCCUCACCUGUUUGUATT against Olfr748, the z-score is inactive: -0.784.

In the case of GCAGUGAAGUCCAAGUUAGTT against Pold3, the z-score was inactive: -0.456.

GGCUUAUCAUAUGAAGACATT against Aplp2: the z-score was active: 2.33.

Take GGUUCAUGUCAUCUUUAACTT against Calr: the z-score was inactive: -1.21.

On to GGAACUUGGAAUUUAGUUGTT against Pla2g4b, for which the z-score was inactive: 1.43.

On to GGAAUCGGAGUAGAAUCCGTT against Tcfl5, for which the z-score is inactive: 0.694.

On to GGCUUUCAUAUUCUGGAAUTT against Gabrb1, for which the z-score was inactive: 0.12.

For GCAAGGUGUUCUGACCCAUTT against Rps6, the z-score was inactive: -0.498.

For GCCUUGCUGUCAAACCACUTT against Krtap9-1, the z-score is inactive: 0.998.

As to GGGACUUCAAUCACAUCAATT against Rpl9, the z-score was inactive: 0.549.

Consider GCUCUGGAACAAUUCCUGCTT against Cstl1, for which the z-score was inactive: 0.393.

For GGAAUUAUCUCACGGCCAGTT against Il17c, the z-score is inactive: 0.113.

For GGCCGAGAAGAUCAAAGCATT against Mrpl12, the z-score is inactive: -0.116.

With GGCCUUUAUUGACUCCAAGTT against Syn3, the z-score was inactive: -0.851.

Take AUGUCUCAGGUGCCUAAGGTT against Pramel26: the z-score is inactive: 0.517.

AGACUCUCUCUUGCACUAGTT against Retnla: the z-score was inactive: -0.754.

On to GCUAGAUAAACUCUCUCAATT against Cxcr5, for which the z-score was inactive: 0.73.

Consider GGUCUUUCCAGAACAAAAATT against Rpa2, for which the z-score is inactive: -1.87.

As for GGAUCAAAGCCGUUCUUUUTT against Foxq1, the z-score is inactive: 0.143.

On to GGACAAAAGUGAUGUUAAATT against Gabrb2, for which the z-score is inactive: 0.567.

Turning to GGCUUCUGUUUUUAUUUGUTT against Zbtb7c, the z-score is inactive: 1.07.

As for CGCCUUGCCAAUAAGUGAATT against Ostf1, the z-score was inactive: -0.198.

For GCCACACAGUGUGAUCCAATT against Nrip2, the z-score was inactive: -1.33.

Regarding “GGCUUUGAGAGUUUGUCACTT against 2410004B18Rik”, the z-score is inactive: -1.62.

On to CCUCUAGUUGUCCCUGAAATT against F12, for which the z-score is inactive: 0.883.

With CCACUUCUACAUACUUAAUTT against Plau, the z-score is inactive: 0.62.

For GGCAUUGAGAUGCUGGAAATT against Trappc4, the z-score was active: 2.46.

In the case of CCAGUUUAAGAGGAUUAUCTT against Ttc3, the z-score was inactive: 0.681.

In the case of GGAGGUAUCAGGUACCAACTT against Cpne6, the z-score was inactive: 1.21.

Regarding GGAAACUCGAAAUAUAUCUTT against Lancl3, the z-score was inactive: 1.56.

In the case of GGUCUCUGUACUUUGACUGTT against Cldn19, the z-score is inactive: -1.2.

On to GGACAAGAAGCCACUGACATT against Arrb1, for which the z-score is active: 2.2.

Take GGCACUUAAAAGCCGUAUUTT against Naif1: the z-score is inactive: -1.25.

For the sequence GCCACGAUGUGUGGAAAUUTT against Cfh, the z-score is inactive: 0.278.

Regarding GGGUCAGUUUUUACAUUUUTT against Cxcl14, the z-score is inactive: 0.882.

Turning to GAUGGCUUGUGAAAUACCATT against Hat1, the z-score was inactive: 1.58.

Take GGAUGUAGACUUUAUCAAUTT against Glipr1l2: the z-score is inactive: 1.23.

For GGUUUUUCUUCUGCUGGUGTT against Olfr1256, the z-score was inactive: 1.64.

GGAUCGUAGAACACCCUUCTT against Robo2: the z-score was inactive: -0.00164.

CGAUAUCUCGAAAAUUUCATT against C1galt1c1: the z-score is inactive: 0.955.

Regarding GGAAAACGGAAAAGACAUCTT against Calr3, the z-score is inactive: 0.584.

As to CCCGAAGUCCUGUUUUGCATT against Olig3, the z-score was inactive: 0.839.

For GGAUGCUGGUUCUUUUGGUTT against Gdpd4, the z-score was inactive: -0.213.

With CGAGUACAGUGGUUUGUCATT against Orc1, the z-score is inactive: 0.858.

For the sequence GGCAAACAUCUGUAUCUAUTT against Golph3, the z-score is inactive: -0.571.

For GGGCACCAUCAACAUGAACTT against Mprip, the z-score is inactive: 0.435.

On to GCCAACAUGUGUUUGUGUGTT against Krtap9-1, for which the z-score is inactive: 0.821.

With GGUACCUCUGUAUUCAGCCTT against Olfr121, the z-score is inactive: 0.78.

For GCAGAAAAACAUCCACGACTT against Spn, the z-score was active: -2.01.

As for GGAGUGAAAUUUCUGUAAUTT against Olfr796, the z-score was inactive: 0.256.

CCUUUUGAUAGAGAAGAGCTT against Olfr1426: the z-score is inactive: 0.131.

As for GGAGGAGCGUACUAUUUAATT against Slc12a2, the z-score is active: 3.34.

Regarding GCAAAACUCAUUGAAAGUGTT against Pramel13, the z-score is inactive: -0.619.

Consider GCUUAGUUUAUGAGAAUGCTT against Ptprh, for which the z-score was inactive: -0.791.

In the case of GGAAAGAAAUAGUUAAGGGTT against Zfp239, the z-score is inactive: 0.455.

For the sequence CGGGAAGAGUAUCACUUACTT against Elac2, the z-score was inactive: -1.42.

For CCGACUCUUGGUGCCAUACTT against Hadh, the z-score is inactive: 1.28.

In the case of GCUGUUUCCCAGAGAAGAATT against Defb2, the z-score was inactive: -0.814.

As to GGUGGUGUUUCAUAAGAUGTT against Rragc, the z-score is inactive: -0.0381.

For the sequence GGAGAACUCCAGGUUGGCATT against Eaf1, the z-score was active: -2.03.

As for GGAAGUUGGAGAAGCAAAATT against Hepacam, the z-score is inactive: 0.805.

With GGACACACAGUAUUGUUUGTT against Lypd6b, the z-score was inactive: 0.101.

GGUCAUUCUCCAAGAACUATT against Ugp2: the z-score was inactive: -0.844.

Take GCUUUAACCUGGUUUAGUATT against Magix: the z-score is inactive: -0.145.

As to GCAAUAGGCCUCUUAAUUATT against Sirt1, the z-score is inactive: 0.344.

Regarding GGUACAACAAAAAUGUGACTT against Vmn1r73, the z-score is inactive: -1.39.

Regarding GGAAUUCAUACAGGAACUUTT against Mst1r, the z-score was inactive: 0.0208.

As to CGAAAACGUACAAGAUGAATT against Nap1l4, the z-score is inactive: -0.194.

Consider GAUUCUUGUCGCUCAUAGCTT against Vmn1r52, for which the z-score was inactive: -0.535.

For GGAGCAGAGAAACUUCUCGTT against Gigyf1, the z-score is active: -2.09.

In the case of GGUUCUUACCAAGAUGAAGTT against Ccdc159, the z-score is inactive: 0.969.

The values are drawn from PubChem BioAssay AID1508600 (Functional Genomics Laboratory (NCATS/FGL), 2020).
